# PubChem BioAssay AID1439 (NMMLSC, 2008)
# Sequences of proteins named here, by UniProt entry; tags and fusion partners are left off.
# UniProt P09471, whole entry, looked up: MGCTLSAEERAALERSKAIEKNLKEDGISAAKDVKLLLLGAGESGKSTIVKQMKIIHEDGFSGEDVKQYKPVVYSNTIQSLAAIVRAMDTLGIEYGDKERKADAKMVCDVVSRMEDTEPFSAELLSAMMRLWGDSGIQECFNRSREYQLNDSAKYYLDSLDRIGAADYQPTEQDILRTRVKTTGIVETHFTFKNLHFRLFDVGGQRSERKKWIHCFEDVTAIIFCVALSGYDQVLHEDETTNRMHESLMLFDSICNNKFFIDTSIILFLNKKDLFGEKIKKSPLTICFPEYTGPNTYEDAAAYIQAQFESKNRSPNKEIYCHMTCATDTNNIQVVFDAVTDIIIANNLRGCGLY
# About 770 (0.35%) of roughly 220,000 compounds were called active. Inconclusive results, whose numbers are uncertain, are shown with a selection of clear calls. No stated cut-off is given here; in the data, active means binding response below about 49% or above about 150%; inconclusive means no clear call, values can overlap the other calls; inactive means in between.
# Target: Guanine nucleotide-binding protein G(o) subunit alpha (Homo sapiens) (UniProt P09471)
# Experiment: RGS7-Galphao binding modulators, primary screen, biochemical, multiplexed bead flow cytometry (AID 1439);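 further: fluorescent Galphao held in activated GDP-AlF4 state binding bead-coupled RGS7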
# Conditions: at 10 µM, actives lie on both sides
row,Compound,binding response (% of control)
1,NC(=O)c1cccc2cc3ccccc3cc12,inconclusive: 102%
2,Cn1ccnc1SCC(=O)c1c[nH]c2ccccc12,inconclusive: 104%
3,COc1ccc(NS(=O)(=O)c2cc(NC(=O)C3CCCO3)ccc2N2CCCC2)cc1 (centres undefined),inconclusive: 111%
4,Cn1cncc1C(=O)c1ccccc1,inconclusive: 176%
5,Cc1ccc(NC(=O)CCSc2nnnn2-c2ccc3c(c2)OCO3)cc1C,inactive: 103%
6,Cc1cc(C)nc(SC(C)CNS(=O)(=O)c2ccccc2)n1 (centres undefined),inconclusive: 69.7%
7,CCOC(=O)Nc1ccc(OC)c([N+](=O)[O-])c1,inconclusive: 101%
8,O=C(COC(=O)/C=C/c1ccco1)NCc1ccc2c(c1)OCO2,inconclusive: 94.7%
9,CCN1CCN(c2c(Cl)cccc2NC(=O)c2ccc3nsnc3c2)CC1,inconclusive: 103%
10,CN(C(=O)c1coc(=O)c2ccccc12)c1ccccc1Cl,inconclusive: 97.5%
11,CCN(CC)S(=O)(=O)c1ccc(NC=C(C#N)C#N)cc1,inconclusive: 105%
12,O=C(O)C1CCCN1S(=O)(=O)c1ccc2[nH]c(=O)c(=O)[nH]c2c1 (centres undefined),inactive: 144%
13,CC1=C([N+](=O)[O-])C(c2ccccc2C(F)(F)F)NC(=O)N1C (centres undefined),inconclusive: 100%
14,Nc1ccc(NC(=O)c2ccc(C(=O)Nc3ccc(N)cc3)cc2)cc1,inconclusive: 81%
15,CC(C)CCNC(=O)C1CCC(CNc2c(N3CCCC3)c(=O)c2=O)CC1 (centres undefined),inconclusive: 95%
16,O=C(NCCN1C(=O)S/C(=C\c2cccnc2)C1=O)c1cc(S(=O)(=O)N2CCOCC2)ccc1F,inconclusive: 286%
17,Cc1ccnc(NS(=O)(=O)c2ccc(Cl)nc2)c1,inconclusive: 56.5%
18,CCCCN(C)C(=O)c1cc2cc([N+](=O)[O-])cc(OC)c2oc1=O,inactive: 97.3%
19,Cc1cc(=O)oc2cc(OCC(=O)OC(C)C(=O)NC3CCCC3)ccc12 (centres undefined),inconclusive: 116%
20,CCOP(=O)(OCC)/C(C#N)=C/c1c[nH]c2ccccc12,inconclusive: 59.5%

# Exported with bars between the fields: 4 of the compounds above
row | Compound | binding response (% of control)
4 | Cn1cncc1C(=O)c1ccccc1 | inconclusive: 176%
7 | CCOC(=O)Nc1ccc(OC)c([N+](=O)[O-])c1 | inconclusive: 101%
13 | CC1=C([N+](=O)[O-])C(c2ccccc2C(F)(F)F)NC(=O)N1C (centres undefined) | inconclusive: 100%
17 | Cc1ccnc(NS(=O)(=O)c2ccc(Cl)nc2)c1 | inconclusive: 56.5%

# Later entries.

row,Compound,binding response (% of control)
1,O=C1CN(C(=O)c2cc([N+](=O)[O-])ccc2Cl)C(c2ccc(F)cc2)c2cc(F)ccc2N1 (centres undefined),inactive: 96.3%
2,C/C(=N\NC(=O)c1[nH]c2c([N+](=O)[O-])cc(C)cc2c1-c1ccccc1)c1cccnc1,inactive: 99.2%
3,Cc1ccccc1N/C(=N/S(=O)(=O)c1ccccc1)c1ccc(F)cc1,inconclusive: 109%
4,CCCn1c(=O)[nH]c(=O)c2c1nc(-c1ccc(OC)c(Br)c1)n2CCOC,inactive: 95.5%
5,Cc1ccc(S(=O)(=O)n2[nH]c(=O)c(CCO)c2C)cc1,inactive: 100%
6,CCn1c2ccccc2c2cc(CC(N)=O)ccc21,inconclusive: 101%
7,O=C(O)/C=C/c1cn(-c2ccccc2)nc1-c1cc2ccccc2o1,inconclusive: 82.5%
8,CCCCc1ccc(NC(=O)c2ccc(N(C)S(C)(=O)=O)cc2)cc1,inconclusive: 101%
9,CCOC(=O)c1cc(NC(=O)CCC(=O)O)ccc1N1CCCCC1,inconclusive: -293%
10,COc1cc(C(=O)Nc2nc3ccc(S(C)(=O)=O)cc3s2)cc(OC)c1C,inconclusive: 93.2%
11,CCOC(=O)/C(C#N)=C\c1ccc(O)c(OC)c1,inactive: 102%
12,CC(OC(=O)c1cc(S(=O)(=O)Nc2ccc(F)cc2)ccc1Cl)C(=O)Nc1ccc2c(c1)OCCO2 (centres undefined),inactive: 102%
13,C=CCOc1c(Br)cc(/C=C(\C#N)C(N)=O)cc1OC,inconclusive: 119%
14,COCCCNc1oc(-c2cccs2)nc1S(=O)(=O)c1ccc(C)cc1,inconclusive: 102%
15,Cc1ccc2[nH]c(=O)c(CN(Cc3cccnc3)Cc3nnnn3CC3CCCO3)cc2c1 (centres undefined),inconclusive: 118%
16,Cc1ccc(/C=C/C(=O)CCC(=O)O)cc1,inactive: 98%
17,N=C(N)N1CCN(Cc2ccccc2)CC1,inactive: 103%
18,CC(C)CC(NC(=O)C(CC(C)C)NC(=O)OC(C)(C)C)C(N)=O (centres undefined),inactive: 107%
19,N#Cc1nc(-c2cccc3ccccc23)oc1NCCN1CCOCC1,inactive: 102%
20,O=C(NCCCc1nc2ccccc2[nH]1)c1ccc(F)cc1,inactive: 98.9%

row,Compound,binding response (% of control)
1,Cc1cccc(C)c1OCCNC(=O)OCc1ccccc1,inconclusive: 72.4%
2,CCC(=O)c1c(NC)cc(C)oc1=O,inconclusive: 122%
3,Cc1ccc(-c2nc(SCC(=O)N(C)C3CCS(=O)(=O)C3)[nH]c2-c2ccc(C)cc2)cc1 (centres undefined),inactive: 97.2%
4,CCNC(=O)N1CCCC(C(=O)c2ccc(OC)c(OC)c2)C1 (centres undefined),inactive: 98.9%
5,O=C(Nc1nn[nH]n1)c1ccc(S(=O)(=O)N2CCCCC2)cc1,inconclusive: 81.1%
6,CCOC(=O)/C(C#N)=C/c1c(N2CCN(Cc3ccc4c(c3)OCO4)CC2)nc2c(C)cccn2c1=O,inconclusive: 139%
7,CNC(=O)C(=O)NCCCN1CCOCC1,inactive: 95.3%
8,Nc1nnn(CC(=O)N/N=C/c2ccncc2)n1,inconclusive: 98.4%
9,COc1ccc2nc(-c3ccc(Cl)cc3)cc(C(=O)O)c2c1,inconclusive: 126%
10,Cn1c(=O)c2c(ncn2CCCC(=N)N2CCOCC2)n(C)c1=O,inconclusive: 92.3%
11,O=C1C2C3CCC(C3)C2C(=O)N1c1ccc(OS(=O)(=O)c2ccccc2)cc1 (centres undefined),inconclusive: 107%
12,CCOc1ccc(-n2c(C)c(C(=O)OC)c3cc(O)ccc32)cc1,inconclusive: 94%
13,CC(C)N=C1NN=C(c2ccc(F)cc2)CS1,inactive: 100%
14,Cc1c(Cl)cccc1NC(=O)COC(=O)CN1C(=O)NC(C)(C)C1=O,inconclusive: 84.5%
15,N#Cc1c(N)nc(N)nc1Nc1ccc(Br)cc1,inconclusive: 78.6%
16,COc1cc(CN2CCN(c3cccc(C)c3C)CC2)cc([N+](=O)[O-])c1O,inconclusive: 144%
17,Cc1ccc2cc(C3CC(c4ccco4)=NN3C(=O)CCCC(=O)O)c(Cl)nc2c1 (centres undefined),inconclusive: 144%
18,O=[N+]([O-])c1cc2c(cc1Br)CCN2,inactive: 99.9%
19,CCOC(=O)C1=C(Cn2cnc3ccccc32)NC(=O)NC1c1cc(C)ccc1C (centres undefined),inactive: 95.8%
